Results are given in words; binding and its absence hold for the method and conditions named. For part of these data: In cells and extracts the contact can be indirect. Some entries that bind do so weakly or less than the wild type. For part of these data: Tags and fused reporters may be left off the sequences shown. Blank lines part the entries; values can stand above or below the binder they belong to.
How the values were obtained:
[1] = target: T1, endogenous Humanin receptor (HNR) on F11 cells and on mouse primary cortical neurons (PCN) (mouse) (UniProt O88507+O70394+Q00560); experiment: cold competitor in binding assay (2), F11 cells at endogenous receptor level
[2] = target: C-terminally myc-tagged human WSX-1 (mycHis-WSX-1) (human) (UniProt Q6UWB1); experiment: pull-down with HN-Sepharose 4B from lysates of F11 cells overexpressing WSX-1, immunoblot
[3] = target: T2, C-terminally V5-tagged human CNTF-R (V5-CNTF-R) (human) (UniProt P26992); experiment: pull-down with HN-Sepharose 4B from lysates of F11 cells overexpressing CNTF-R, immunoblot
T2 sequence (looked up): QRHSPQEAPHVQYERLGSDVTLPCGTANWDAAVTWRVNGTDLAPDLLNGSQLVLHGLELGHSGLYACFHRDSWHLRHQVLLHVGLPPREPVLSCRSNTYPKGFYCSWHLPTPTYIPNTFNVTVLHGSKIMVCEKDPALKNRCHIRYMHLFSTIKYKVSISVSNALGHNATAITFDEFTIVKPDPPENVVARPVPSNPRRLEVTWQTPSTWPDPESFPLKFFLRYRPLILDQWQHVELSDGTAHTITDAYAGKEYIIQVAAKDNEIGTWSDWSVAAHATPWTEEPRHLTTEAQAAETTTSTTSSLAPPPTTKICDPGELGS

The chains behind the UniProt entries cited, without tags or fusion partners. Where a name states a change or a piece, a line headed by the entry shows the natural chain unless it says otherwise. Residues count along the entry.
UniProt O88507: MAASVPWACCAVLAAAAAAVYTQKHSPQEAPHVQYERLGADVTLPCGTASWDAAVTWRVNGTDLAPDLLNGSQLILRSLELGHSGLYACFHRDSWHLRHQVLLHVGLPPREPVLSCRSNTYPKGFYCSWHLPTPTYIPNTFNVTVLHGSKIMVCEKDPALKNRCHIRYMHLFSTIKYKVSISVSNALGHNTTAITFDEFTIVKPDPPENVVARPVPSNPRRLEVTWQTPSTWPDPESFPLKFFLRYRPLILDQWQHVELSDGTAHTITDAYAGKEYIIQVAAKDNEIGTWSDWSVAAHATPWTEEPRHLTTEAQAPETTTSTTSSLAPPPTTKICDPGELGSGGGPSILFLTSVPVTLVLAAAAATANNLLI
UniProt O70394: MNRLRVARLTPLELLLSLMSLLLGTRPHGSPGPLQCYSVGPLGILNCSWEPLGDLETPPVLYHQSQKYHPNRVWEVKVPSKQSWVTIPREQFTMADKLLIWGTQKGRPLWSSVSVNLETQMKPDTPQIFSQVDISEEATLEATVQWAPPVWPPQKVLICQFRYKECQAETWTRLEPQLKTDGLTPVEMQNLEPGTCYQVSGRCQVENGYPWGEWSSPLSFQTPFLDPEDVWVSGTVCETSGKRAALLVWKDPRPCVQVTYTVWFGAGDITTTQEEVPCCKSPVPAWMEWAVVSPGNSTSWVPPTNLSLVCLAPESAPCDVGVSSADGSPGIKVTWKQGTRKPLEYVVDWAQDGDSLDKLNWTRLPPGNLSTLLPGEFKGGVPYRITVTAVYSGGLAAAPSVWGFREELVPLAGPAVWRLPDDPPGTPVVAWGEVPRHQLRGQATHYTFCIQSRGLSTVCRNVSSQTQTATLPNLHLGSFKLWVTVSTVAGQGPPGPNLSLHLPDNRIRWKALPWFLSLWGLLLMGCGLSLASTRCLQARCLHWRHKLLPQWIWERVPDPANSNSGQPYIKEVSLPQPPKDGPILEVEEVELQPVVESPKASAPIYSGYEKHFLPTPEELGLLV
UniProt Q00560: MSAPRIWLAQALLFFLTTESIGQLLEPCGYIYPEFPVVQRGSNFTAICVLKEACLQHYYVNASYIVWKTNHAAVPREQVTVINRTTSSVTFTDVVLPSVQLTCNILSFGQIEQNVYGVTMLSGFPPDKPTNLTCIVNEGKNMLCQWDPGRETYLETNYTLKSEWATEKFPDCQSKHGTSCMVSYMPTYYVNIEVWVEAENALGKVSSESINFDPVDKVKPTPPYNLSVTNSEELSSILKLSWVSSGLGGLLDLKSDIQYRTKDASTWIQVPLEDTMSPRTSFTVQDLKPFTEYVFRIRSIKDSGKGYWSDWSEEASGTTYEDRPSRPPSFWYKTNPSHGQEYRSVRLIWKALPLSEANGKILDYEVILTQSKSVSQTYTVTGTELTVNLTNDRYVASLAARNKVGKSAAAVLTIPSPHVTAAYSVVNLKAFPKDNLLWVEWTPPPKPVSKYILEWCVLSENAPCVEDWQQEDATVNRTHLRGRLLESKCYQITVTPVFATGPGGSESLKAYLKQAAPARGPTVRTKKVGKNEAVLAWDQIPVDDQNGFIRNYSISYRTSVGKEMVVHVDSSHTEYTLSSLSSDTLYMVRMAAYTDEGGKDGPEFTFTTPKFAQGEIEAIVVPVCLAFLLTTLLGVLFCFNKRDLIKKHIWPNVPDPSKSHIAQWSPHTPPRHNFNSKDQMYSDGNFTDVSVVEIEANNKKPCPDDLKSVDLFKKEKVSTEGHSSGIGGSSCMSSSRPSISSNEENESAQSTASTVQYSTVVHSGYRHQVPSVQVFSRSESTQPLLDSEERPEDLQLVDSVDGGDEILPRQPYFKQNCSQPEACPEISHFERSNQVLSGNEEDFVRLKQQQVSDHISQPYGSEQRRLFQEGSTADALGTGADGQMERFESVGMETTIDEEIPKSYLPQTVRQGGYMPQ
UniProt Q6UWB1, residues 33-636: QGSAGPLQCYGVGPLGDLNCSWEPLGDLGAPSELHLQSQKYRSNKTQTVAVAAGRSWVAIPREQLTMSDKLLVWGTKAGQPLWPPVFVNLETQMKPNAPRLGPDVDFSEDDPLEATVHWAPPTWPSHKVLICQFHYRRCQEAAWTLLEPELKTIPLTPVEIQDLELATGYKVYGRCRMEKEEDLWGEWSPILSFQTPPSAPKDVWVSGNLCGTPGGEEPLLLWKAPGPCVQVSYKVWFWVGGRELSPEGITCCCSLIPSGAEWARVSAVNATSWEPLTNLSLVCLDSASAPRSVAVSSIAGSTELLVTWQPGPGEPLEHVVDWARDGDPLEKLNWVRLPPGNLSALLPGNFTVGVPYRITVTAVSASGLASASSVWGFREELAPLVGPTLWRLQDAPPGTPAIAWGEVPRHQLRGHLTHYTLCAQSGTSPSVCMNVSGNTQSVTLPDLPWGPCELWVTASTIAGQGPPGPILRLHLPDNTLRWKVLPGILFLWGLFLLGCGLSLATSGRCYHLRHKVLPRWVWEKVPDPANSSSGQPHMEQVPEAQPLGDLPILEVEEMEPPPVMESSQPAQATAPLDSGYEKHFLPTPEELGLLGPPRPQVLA
UniProt P40189: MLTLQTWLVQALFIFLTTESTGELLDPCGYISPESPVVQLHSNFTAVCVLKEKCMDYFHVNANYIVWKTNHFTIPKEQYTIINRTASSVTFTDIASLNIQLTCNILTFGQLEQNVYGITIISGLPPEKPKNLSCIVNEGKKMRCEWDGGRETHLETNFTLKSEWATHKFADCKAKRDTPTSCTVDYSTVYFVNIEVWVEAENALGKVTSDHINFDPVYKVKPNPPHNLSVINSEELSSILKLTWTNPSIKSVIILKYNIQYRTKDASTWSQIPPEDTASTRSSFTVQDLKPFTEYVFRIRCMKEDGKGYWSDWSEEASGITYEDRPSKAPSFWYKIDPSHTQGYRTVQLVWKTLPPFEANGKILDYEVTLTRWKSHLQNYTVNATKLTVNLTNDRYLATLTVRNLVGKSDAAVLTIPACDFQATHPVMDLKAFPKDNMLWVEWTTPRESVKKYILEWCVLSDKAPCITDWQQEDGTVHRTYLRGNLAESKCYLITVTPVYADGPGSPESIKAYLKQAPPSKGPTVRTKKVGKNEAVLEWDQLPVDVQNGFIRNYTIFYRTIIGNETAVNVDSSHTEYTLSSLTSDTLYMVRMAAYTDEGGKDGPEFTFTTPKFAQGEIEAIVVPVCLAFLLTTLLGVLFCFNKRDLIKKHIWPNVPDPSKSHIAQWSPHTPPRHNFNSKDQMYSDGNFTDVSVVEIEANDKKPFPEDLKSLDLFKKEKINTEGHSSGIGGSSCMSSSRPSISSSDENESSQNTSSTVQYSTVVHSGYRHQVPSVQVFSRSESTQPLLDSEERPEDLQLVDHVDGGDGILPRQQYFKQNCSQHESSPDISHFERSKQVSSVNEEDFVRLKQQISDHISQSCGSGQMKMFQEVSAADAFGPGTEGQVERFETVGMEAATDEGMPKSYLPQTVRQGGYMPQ

[4] = target: T1, endogenous Humanin receptor (HNR) on F11 cells and on mouse primary cortical neurons (PCN) (mouse); experiment: binding assay (2) with biotin-HNG on F11 cells after simultaneous siRNA knock-down of CNTF-R and WSX-1
[5] = target: T1, endogenous Humanin receptor (HNR) on F11 cells and on mouse primary cortical neurons (PCN) (mouse); experiment: immunofluorescence HN-binding assay with biotin-HN on F11 cells after siRNA knock-down of WSX-1 and CNTF-R
[6] = target: C-terminally myc-tagged human WSX-1 (mycHis-WSX-1) (human) (UniProt Q6UWB1); experiment: immunofluorescence-based HN binding assay (1), F11 cells overexpressing human WSX-1 and human gp130
[7] = target: T2, C-terminally V5-tagged human CNTF-R (V5-CNTF-R) (human); experiment: immunofluorescence-based HN binding assay (1), F11 cells overexpressing human CNTF-R and human gp130
[8] = target: Humanin receptor (HNR) overexpressed in F11 cells: human CNTF-R/WSX-1/gp130 (human) (UniProt P26992+Q6UWB1+P40189); experiment: immunofluorescence-based HN binding assay (1), F11 cells overexpressing human WSX-1, human CNTF-R and human gp130

B1: S14G-Humanin (HNG) (peptide)
peptide: MAPRGFSCLLLLTGEIDLPVKRRA
notes: also called S14G-HN
binding [1]: binds

B3: Biotin-HNG (peptide)
peptide: MAPRGFSCLLLLTGEIDLPVKRRA
modifications: biotin label, position not stated
binding [4]: binds

B4: Biotin-HN (peptide)
peptide: MAPRGFSCLLLLTSEIDLPVKRRA
modifications: biotin label, position not stated
binding [5]: binds

Results, then the binder that gave them:

binding [1]: binds | binding [2]: binds | binding [3]: binds
B2: Humanin (HN) (peptide)
peptide: MAPRGFSCLLLLTSEIDLPVKRRA
notes: Synthetic 24-residue peptide; elsewhere it was used free and unlabeled; also called synthetic Humanin

binding [6]: binds | binding [7]: binds | binding [8]: binds
B5: biotin-labeled HNG-FLAG (peptide, not shown: small tags and cut ends)
peptide: MAPRGFSCLLLLTGEIDLPVKRRA
modifications: biotin label, position not stated
